Source: paper PMC11847685
Results are given in words; binding and its absence hold for the method and conditions named. Binding seen in cells or lysates may run through a third protein. Some results given as binding are weak or reduced against the parent protein; the word gives no strength.

Chains of the proteins cited; added tags and fusions are not shown. Lines headed by an entry give the natural chain unless they say otherwise; changes in a name come on top. Residues count along the entry.
UniProt P41240: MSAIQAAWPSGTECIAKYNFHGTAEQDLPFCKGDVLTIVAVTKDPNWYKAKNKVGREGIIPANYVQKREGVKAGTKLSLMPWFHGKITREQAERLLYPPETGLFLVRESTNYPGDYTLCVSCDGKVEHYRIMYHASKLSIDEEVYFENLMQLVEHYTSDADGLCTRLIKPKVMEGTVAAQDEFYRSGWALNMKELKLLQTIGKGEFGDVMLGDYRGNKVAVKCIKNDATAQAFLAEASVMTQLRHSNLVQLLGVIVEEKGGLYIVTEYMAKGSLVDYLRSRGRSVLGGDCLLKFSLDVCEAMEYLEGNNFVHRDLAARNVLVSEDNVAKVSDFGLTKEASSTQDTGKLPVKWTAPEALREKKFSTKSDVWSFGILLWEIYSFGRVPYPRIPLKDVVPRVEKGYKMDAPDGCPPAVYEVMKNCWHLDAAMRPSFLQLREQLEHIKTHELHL
UniProt P06401: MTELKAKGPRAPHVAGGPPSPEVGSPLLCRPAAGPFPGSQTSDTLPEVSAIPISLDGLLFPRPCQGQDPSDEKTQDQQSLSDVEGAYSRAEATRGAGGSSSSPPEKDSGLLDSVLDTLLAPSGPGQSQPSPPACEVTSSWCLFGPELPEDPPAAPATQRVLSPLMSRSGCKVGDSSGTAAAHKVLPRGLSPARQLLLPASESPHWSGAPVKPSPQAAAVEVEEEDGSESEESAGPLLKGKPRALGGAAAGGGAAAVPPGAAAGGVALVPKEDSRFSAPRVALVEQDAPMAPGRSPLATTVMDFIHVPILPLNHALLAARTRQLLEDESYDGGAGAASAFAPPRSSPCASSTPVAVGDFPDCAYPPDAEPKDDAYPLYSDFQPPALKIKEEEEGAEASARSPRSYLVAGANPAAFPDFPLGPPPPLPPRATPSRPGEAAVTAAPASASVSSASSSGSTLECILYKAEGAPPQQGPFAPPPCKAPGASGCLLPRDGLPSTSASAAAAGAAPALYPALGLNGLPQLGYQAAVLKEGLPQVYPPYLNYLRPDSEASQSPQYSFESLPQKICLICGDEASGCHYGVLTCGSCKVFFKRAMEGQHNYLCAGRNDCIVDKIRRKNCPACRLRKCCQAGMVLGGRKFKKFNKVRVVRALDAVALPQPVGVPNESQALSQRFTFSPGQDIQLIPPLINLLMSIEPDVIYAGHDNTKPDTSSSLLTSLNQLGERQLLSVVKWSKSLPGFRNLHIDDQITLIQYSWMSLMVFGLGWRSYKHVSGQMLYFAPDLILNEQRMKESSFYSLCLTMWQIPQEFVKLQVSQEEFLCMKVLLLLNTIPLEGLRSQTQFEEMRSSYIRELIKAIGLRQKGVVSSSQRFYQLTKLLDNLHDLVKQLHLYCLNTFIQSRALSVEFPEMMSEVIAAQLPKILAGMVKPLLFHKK
progesterone receptor isoform A (PRA): residues 165-933 of P06401
UniProt Q03135: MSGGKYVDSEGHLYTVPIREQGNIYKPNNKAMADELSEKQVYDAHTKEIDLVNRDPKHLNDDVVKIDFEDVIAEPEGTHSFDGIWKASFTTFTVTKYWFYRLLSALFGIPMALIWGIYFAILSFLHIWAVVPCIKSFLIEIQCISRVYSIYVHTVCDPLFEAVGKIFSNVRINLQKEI

How the values were obtained:
[1] = molecular target: Csk (human (endogenous in T47D, MCF-7 and BT-483)) (UniProt P41240); assay: co-IP; endogenous proteins of T47D, MCF-7 and BT-483 cell extracts (200 ug protein), primary antibody (2 ug) and protein A agarose beads, washed 5 times with lysis buffer and once with PBS, Western blot; cells with or without P4 (50 nM), with NT siRNA or SHP2 siRNA
[2] = molecular target: progesterone receptor (PR) (human (endogenous in T47D, MCF-7 and BT-483)) (UniProt P06401); assay: as above

| Substance | binding [1] | binding [2] |
| --- | --- | --- |
| phosphorylated progesterone receptor isoform A (p-PRA) (from UniProt P06401-2 1-769) | binds | – |
| progesterone receptor isoform A (PRA) (from UniProt P06401-2 1-769) | binds | – |
| caveolin-1 (from UniProt Q03135 1-178) | – | binds |
| Csk (from UniProt P41240 1-450) (enzyme) | – | binds |
